In all, about 400,000 compounds went through this assay and about 13,000 (3.2%) were called active. The inconclusive results got no clear call from the source; some entries with a clear call stand among them for comparison. The call rests on the fitted dose curve; in most records, active means well fitted cell-killing curve with a large enough effect; inconclusive means small, poorly fitted or top-dose-only effect, or effect the other way; inactive means flat fitted curve, though single readings scatter. Potencies of inconclusive entries are doubtful fits and often do not repeat.
Experiment: qHTS assay for MDR1-selective chemotherapeutics: Primary screen using the drug-selected MDR subline cells KB-V1; further: nearly all actives have a fitted effect of over 60% in size
Settings: KB-V1 MDR cells viability, CellTiter-Glo, 72 h; activity change, negative = cytotoxicity: at 46.1 µM (top of the series)
Procedure, shortened: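 Compound-treated KB-V1 multidrug-resistant cells, 72 h, 37 degrees C; viability by CellTiter-Glo. Fitted qHTS curves give the values.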
On the % scale 0 is the no-effect control and ±100 the full control effect; potency means the concentration at half of the fitted maximal effect.

Row | SMILES | Potency | activity change, negative = cytotoxicity
1 | CC1CCCN(C2=C(NS(=O)(=O)c3ccc(Br)cc3)C(=O)c3ccccc3C2=O)C1 (centres undefined) | inconclusive: 29.1 µM [cytotoxic, single point] | –
2 | CCn1c(COc2ccc(=O)n(-c3ccccc3)n2)nnc1SCc1ccc(C)cc1 | inconclusive: 9.2 µM [cytotoxic, partial curve] | –
3 | CCCCCOC(=O)c1ccc(OC(=O)c2sc3ncn(Cc4cccc(F)c4)c(=O)c3c2C)cc1 | inactive | –
4 | C#CCN1C(=O)C(O)(CC(=O)c2cccc(OC)c2)c2ccccc21 (centres undefined) | inconclusive: 29.1 µM [cytotoxic, single point] | –
5 | CCOC(=O)c1cc(S(=O)(=O)N2CCN(c3ccc(F)cc3)CC2)[nH]n1 | inactive | –
6 | CCC(C)n1c(=S)[nH]c2c(sc3ccc([N+](=O)[O-])cc32)c1=O (centres undefined) | inconclusive: 16.4 µM [cytotoxic, single point] | –
7 | Cc1ccc(-c2nnc(SCC(=O)NC3CC3)o2)cc1 | inconclusive: 29.1 µM [rising, single point] | –
8 | COc1ccc(N2CCN(C(=O)CSc3nnc4c(C)cc5c(C)cc(C)cc5n34)CC2)cc1 | inconclusive: 11.6 µM [cytotoxic, partial curve, poor fit] | –
9 | COc1ccc(CNC(=O)Nc2cc(C)cc(C)c2)cc1 | inconclusive: 20.6 µM [cytotoxic, partial curve, poor fit] | –
10 | C[C@@H](C(=O)Nc1ccc2ccccc2c1)[C@@H]1C[C@@]1(C)[C@@H](N)c1ccccc1 | inconclusive: 14.6 µM [rising, partial curve, poor fit] | –
11 | O=C(Nc1ccc(S(=O)(=O)N(Cc2ccccc2)c2ccccc2)cc1)c1ccc([N+](=O)[O-])cc1 | inconclusive: 2.59 µM [cytotoxic, partial curve, poor fit] | –
12 | O=C1CCN(S(=O)(=O)c2cc(C(F)(F)F)ccc2Cl)CC1 | inactive | –
13 | COCCn1c(SCC(=O)Nc2ccc(C(F)(F)F)cc2)nc2c([nH]c3ccccc32)c1=O | inactive | –
14 | COc1ccc(Cn2nnnc2CN2CCC(O)(c3ccc(F)cc3)CC2)cc1 | inconclusive: 7.31 µM [cytotoxic, partial curve] | –
15 | O=C(NCc1ccccc1Cl)c1ccc(NC(=O)N2CCSc3ncccc32)cc1 | inconclusive: 0.731 µM [rising, full curve, poor fit] | –
16 | COc1ccc(-n2c(SC(CN3CCCCC3)CN3CCCC3=O)nc3ccccc3c2=O)cc1 (centres undefined) | inconclusive: 25.9 µM [cytotoxic, partial curve, poor fit] | –
17 | Cc1nnc(NC(=O)CSc2nnc(CCc3nc4ccccc4[nH]3)n2C)s1 | inactive | –
18 | CCOc1ccc(S(=O)(=O)N2CCCCC2)cc1NC(=O)CN1CCCC1c1cccs1 (centres undefined) | inconclusive: 23.1 µM [cytotoxic, single point] | –
19 | CCCN(CC(=O)Nc1ccccc1C)C(=O)CCl | inconclusive: 14.6 µM [cytotoxic, partial curve, poor fit] | –
20 | Cc1ccc2c(C(=O)CNc3nccs3)c(C)[nH]c2c1 | inconclusive: 29.1 µM [cytotoxic, single point] | –
21 | CCCn1nc(NS(C)(=O)=O)c2cc3cccc(C)c3nc21 | inactive | –
22 | COc1ccc(CCNC(=O)CSc2nnc3c(n2)[nH]c2ccc(F)cc23)cc1OC | inconclusive: 29.1 µM [rising, single point] | –
23 | O=C(CCCNc1ccccc1)N/N=C/c1cccs1 | inconclusive: 0.366 µM [rising, partial curve] | –

Row | SMILES | Potency | activity change, negative = cytotoxicity
24 | COc1ccccc1C1CCN(c2ccc([N+](=O)[O-])c(OC)c2)CC1 | inconclusive: 29.1 µM [cytotoxic, single point] | –
25 | O=C(Nc1ccc(F)c(Cl)c1)c1csc(COCCO)n1 | inactive | –
26 | COCC(=O)Oc1c(S(=O)(=O)c2ccc(C)cc2)c(C)nn1C(C)(C)C | inconclusive: 7.31 µM [rising, partial curve, poor fit] | –
27 | Cc1nnc(SCC(=O)Nc2ccccc2)n1CCc1ccccc1 | inconclusive: 16.4 µM [cytotoxic, single point] | –
28 | O=C(C1CCN(S(=O)(=O)Cc2ccccc2)CC1)N1CCN(c2cccc(Cl)c2)CC1 | inactive | –
29 | CC(C)(C)OC(=O)C[C@@H]1C/C=C\C[C@@H](CC(=O)N(CCO)Cc2ccccc2)C(=O)NC[C@H](c2ccccc2)OC1=O | inconclusive: 11.6 µM [cytotoxic, partial curve, poor fit] | –
30 | O=CNC1(c2ccccc2)CCCCC1 | inactive | –
31 | O=c1c2ccccc2sc2nc(C3CCCCC3)n(Cc3ccco3)c(=O)c12 | inactive | –
32 | Cc1cc(OCCCCn2ccnc2)cc(C)c1Cl | inconclusive: 14.6 µM [cytotoxic, single point] | –
33 | CCN(CC)C(=O)C1CCCN(c2ccc([N+](=O)[O-])cc2)C1 (centres undefined) | inconclusive: 7.31 µM [cytotoxic, partial curve] | –
34 | CCOC(=O)C1=C(C)C/C(=N\NC(=O)c2ccccc2O)CC1 | inconclusive: 29.1 µM [cytotoxic, single point] | –
35 | CC(C)CC(=O)/C=C/n1c(=S)oc2ccccc21 | inconclusive: 29.1 µM [cytotoxic, single point] | –
36 | COc1cc(NC(=O)c2cc(-c3ccccc3)on2)cc(OC)c1OC | inconclusive: 14.6 µM [cytotoxic, single point] | –
37 | CCC1(CC)N=C(c2ccccc2)C(=S)N1 | inactive | –
38 | CC1(C)C(=S)N(Cc2ccccc2)c2ccccc21 | inconclusive: 1.16 µM [rising, full curve] | –
39 | CCOC(=O)Cc1csc(NC(=O)c2cc(C)c(C)s2)n1 | active: 18.4 µM | –
40 | Cc1ccc(NC(=O)C2CCCN(S(=O)(=O)c3c(C)n[nH]c3C)C2)cc1C (centres undefined) | – | inconclusive: -33.4% [cytotoxic]
41 | COc1ccc2[nH]c(=O)c(CN(Cc3cccnc3)C(=S)NCC3CCCO3)cc2c1 (centres undefined) | inactive | –
42 | CCC(=O)N1N=C(c2c(-c3ccccc3)c3cc(Cl)ccc3[nH]c2=O)CC1c1ccco1 (centres undefined) | inactive | –
43 | Cc1cc(=O)oc2c1c(C)nn2-c1ccc(Cl)cc1 | inconclusive: 20.6 µM [cytotoxic, single point] | –
44 | COc1ccccc1S(=O)(=O)Nc1cc(S(=O)(=O)N2CCCCC2)ccc1N1CCOCC1 | inconclusive: 20.6 µM [cytotoxic, single point] | –
45 | S=C(c1ccccc1)N1CCN(C(=S)c2ccccc2)CC1 | inactive | –
46 | Fc1ccc(N2CCN(/C=C/c3nnnn3-c3ccccc3)CC2)cc1 | inactive | –

Laid out differently: entries from further up.

| Row | SMILES | Potency | activity change, negative = cytotoxicity |
| --- | --- | --- | --- |
| 26 | COCC(=O)Oc1c(S(=O)(=O)c2ccc(C)cc2)c(C)nn1C(C)(C)C | inconclusive: 7.31 µM [rising, partial curve, poor fit] | – |
| 30 | O=CNC1(c2ccccc2)CCCCC1 | inactive | – |
| 33 | CCN(CC)C(=O)C1CCCN(c2ccc([N+](=O)[O-])cc2)C1 (centres undefined) | inconclusive: 7.31 µM [cytotoxic, partial curve] | – |
| 46 | Fc1ccc(N2CCN(/C=C/c3nnnn3-c3ccccc3)CC2)cc1 | inactive | – |

Next part

Row | SMILES | Potency | activity change, negative = cytotoxicity
47 | COc1ccc(OC(C)C(=O)Nc2ccccc2C(F)(F)F)cc1 (centres undefined) | inconclusive: 29.1 µM [cytotoxic, single point] | –
48 | Cc1cccn2c(=O)nc(SCC(=O)N3CCCCCC3)nc12 | inactive | –
49 | CCOc1ccc(CCNC(=O)COC(=O)c2ccc(OC)c(OC)c2OC)cc1OCC | inconclusive: 11.6 µM [cytotoxic, partial curve] | –
50 | Oc1[nH]c2ccccc2c1C=Nc1ccc2c(c1)OCO2 | inconclusive: 29.1 µM [cytotoxic, single point] | –
51 | CC(C)CN(C(=O)CCC1CCCCC1)c1c(N)n(CC(C)C)c(=O)[nH]c1=O | inactive | –
52 | Cc1c(Cl)cccc1NC(=O)CSc1nc(=O)n(Cc2cccnc2)c2c1CCC2 | inactive | –
53 | O=C(COC(=O)C1(c2ccccc2F)CCCC1)N1CCc2ccccc21 | inactive | –
54 | CC(C)c1ccc(NC(=O)N2CCc3nc(NCc4cccc(Oc5ccccc5)c4)ncc3C2)cc1 | inconclusive: 18.4 µM [cytotoxic, partial curve, poor fit] | –
55 | Cc1cc(N2CCOCC2)nc2ccc(NC(=O)CCC(=O)N3CCN(c4cccc(C(F)(F)F)c4)CC3)cc12 | inconclusive: 11.6 µM [cytotoxic, partial curve] | –
56 | CCOC(=O)Cn1nc(C)n(-c2ccc(C(C)C)cc2)c1=O | inconclusive: 13 µM [cytotoxic, partial curve] | –
57 | CCOC(=O)[C@]12CCCC=C1N(CCC1=CCCCC1)C(=O)[C@H](CC(=O)NCc1cccs1)C2 | inconclusive: 5.17 µM [cytotoxic, partial curve, poor fit] | –
58 | O=C1CC(c2nc(-c3ccccc3)no2)CN1c1ccc2c(c1)OCCO2 (centres undefined) | inactive | –
59 | CC(=NCc1ccco1)c1c(O)n(C2CCCCC2)c(=O)[nH]c1=O | active: 5.8 µM | –
60 | Cc1c(Cl)cccc1-n1ncc(C(=O)Nc2ccc(F)cc2F)c1C1CCN(C(=O)OC(C)(C)C)CC1 | inconclusive: 29.1 µM [cytotoxic, single point] | –
61 | COC(=O)c1c(NC(=O)CSc2nccn2C)sc(C)c1C | inconclusive: 6.51 µM [cytotoxic, partial curve] | –
62 | O=C1[C@H]2[C@@H](c3ccc(F)cc3)N3C(=O)N(c4ccccc4)C(=O)[C@@]3(Cc3ccccc3)[C@H]2C(=O)N1C1CCCCC1 | inconclusive: 13 µM [rising, single point] | –
63 | Cc1nnc2c3ccccc3c(-c3cccs3)nn12 | inconclusive: 3.26 µM [cytotoxic, partial curve, poor fit] | –
64 | CCCCCCCn1c(NC(=O)CC)nc2ccccc21 | active: 9.2 µM | –
65 | O=c1[nH]c(CSc2nnc(Cc3ccccc3)o2)nc2ccccc12 | inconclusive: 29.1 µM [cytotoxic, single point] | –
66 | CCc1nccn1S(=O)(=O)c1ccccc1[N+](=O)[O-] | inconclusive: 0.82 µM [cytotoxic, full curve] | –
67 | Cc1ccccc1OCC(=O)NCC(=O)OCC(=O)c1ccc(F)cc1 | inactive | –
68 | CCn1c2ccccc2c2cnc(N=CN(C)C)c(C#N)c21 | active: 7.31 µM | –
69 | Cc1ccc(S(=O)(=O)Nc2ccccc2F)cc1C(=O)OC(C)C(=O)N1CCOCC1 (centres undefined) | inconclusive: 20.6 µM [cytotoxic, single point] | –

Source: PubChem BioAssay AID1347076 (National Center for Advancing Translational Sciences (NCATS), 2019)
